Experiment [1] addresses T1, phospho-Tyr14-Cav1, full-length, endogenous, from pervanadate-treated ME-180 cells (human (endogenous in ME-180)), Q03135.
T1 chain: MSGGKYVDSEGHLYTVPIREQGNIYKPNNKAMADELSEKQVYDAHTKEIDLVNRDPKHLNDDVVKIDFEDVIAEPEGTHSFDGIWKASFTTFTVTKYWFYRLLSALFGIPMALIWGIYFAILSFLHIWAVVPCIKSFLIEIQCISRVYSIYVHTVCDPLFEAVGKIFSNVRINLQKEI
In words: co-IP; endogenous Cav1 immunoprecipitated with anti-Cav1 antibody and protein G-agarose from lysates of untreated or pervanadate-treated ME-180 cells; precipitates probed for Cav1, phospho-Tyr14-Cav1 and Vav2. As to conditions: remark: other sources report otherwise.

Experiment [2] addresses T2, Full-length GFP-Vav2, P52735.
T2 chain: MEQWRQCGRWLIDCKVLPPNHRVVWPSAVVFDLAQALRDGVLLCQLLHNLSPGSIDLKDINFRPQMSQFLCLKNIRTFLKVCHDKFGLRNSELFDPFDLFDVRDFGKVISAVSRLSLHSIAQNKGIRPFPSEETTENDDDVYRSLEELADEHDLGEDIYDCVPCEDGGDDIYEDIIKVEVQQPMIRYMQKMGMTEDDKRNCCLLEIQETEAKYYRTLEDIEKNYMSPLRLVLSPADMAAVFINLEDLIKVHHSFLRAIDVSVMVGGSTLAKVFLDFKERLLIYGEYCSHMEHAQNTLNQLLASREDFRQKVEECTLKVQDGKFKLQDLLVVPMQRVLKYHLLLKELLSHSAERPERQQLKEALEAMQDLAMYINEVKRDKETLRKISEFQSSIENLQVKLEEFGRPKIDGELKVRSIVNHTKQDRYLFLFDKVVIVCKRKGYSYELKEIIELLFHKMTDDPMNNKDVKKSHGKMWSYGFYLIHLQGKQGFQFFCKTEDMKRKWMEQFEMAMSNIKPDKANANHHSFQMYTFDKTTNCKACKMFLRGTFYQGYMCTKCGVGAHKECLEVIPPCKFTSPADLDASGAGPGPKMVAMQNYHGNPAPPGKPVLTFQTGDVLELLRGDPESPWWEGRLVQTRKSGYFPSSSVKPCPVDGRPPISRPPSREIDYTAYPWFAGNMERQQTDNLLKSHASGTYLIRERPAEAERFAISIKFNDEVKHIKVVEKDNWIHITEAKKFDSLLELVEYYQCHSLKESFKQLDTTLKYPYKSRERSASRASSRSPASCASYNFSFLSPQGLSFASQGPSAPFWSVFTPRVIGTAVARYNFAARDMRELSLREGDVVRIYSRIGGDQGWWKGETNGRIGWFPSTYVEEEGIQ
In words: co-IP; GFP-Vav2 or GFP precipitated with a GFP antibody, truncated Vav2 with a FLAG antibody, from lysates of transfected, pervanadate-treated ME-180 cells; precipitates probed for phospho-Tyr14-Cav1. As to conditions: remark: other sources report otherwise.

Experiment [3] has as its target biotin-labeled Tyr14-Cav1 phosphopeptide (15-mer, residues 7-21 of Cav1, phosphorylated on Tyr14) (human) (UniProt Q03135). In words: pull-down; biotinylated peptides (10 nmol) on streptavidin agarose beads, ~2 mg lysate of uninfected or P+GC-infected ME-180 cells, overnight at 4°C, 2 mM sodium orthovanadate in the lysis buffer; Western blot; only the target purified. For orientation: A western blot detects proteins with antibodies after separation by electrophoresis.

Results are given in words; binding and its absence hold for the method and conditions named. In cells and extracts the contact can be indirect. Some results given as binding are weak or reduced against the parent protein; the word gives no strength. For part of these data: Where a sequence is shown, tags or fusion partners need not be part of it.

The source of these data is PMC2927421, “Tyrosine-Phosphorylated Caveolin-1 Blocks Bacterial Uptake by Inducing Vav2-RhoA-Mediated Cytoskeletal Rearrangements” (PLoS Biology, 2010).

B1: Vav2 (endogenous, ME-180 cells), P52735 1-878 (protein)
chain: T2 chain
modifications: here or on the partner: phosphotyrosine at 14
For the molecule B1, the binding entry in experiment [1] was “binds”.

B2: phospho-Tyr14-Cav1, full-length, endogenous, from pervanadate-treated ME-180 cells, Q03135 1-178 (protein)
chain: T1 chain
modifications: here or on the partner: phosphotyrosine at 14
As to B2, the binding result in experiment [2] was “binds”.

B3: Phospholipase Cγ1 (endogenous, ME-180 cells) (protein, UniProt P19174 1-1290)
chain: MAGAASPCANGCGPGAPSDAEVLHLCRSLEVGTVMTLFYSKKSQRPERKTFQVKLETRQITWSRGADKIEGAIDIREIKEIRPGKTSRDFDRYQEDPAFRPDQSHCFVILYGMEFRLKTLSLQATSEDEVNMWIKGLTWLMEDTLQAPTPLQIERWLRKQFYSVDRNREDRISAKDLKNMLSQVNYRVPNMRFLRERLTDLEQRSGDITYGQFAQLYRSLMYSAQKTMDLPFLEASTLRAGERPELCRVSLPEFQQFLLDYQGELWAVDRLQVQEFMLSFLRDPLREIEEPYFFLDEFVTFLFSKENSVWNSQLDAVCPDTMNNPLSHYWISSSHNTYLTGDQFSSESSLEAYARCLRMGCRCIELDCWDGPDGMPVIYHGHTLTTKIKFSDVLHTIKEHAFVASEYPVILSIEDHCSIAQQRNMAQYFKKVLGDTLLTKPVEISADGLPSPNQLKRKILIKHKKLAEGSAYEEVPTSMMYSENDISNSIKNGILYLEDPVNHEWYPHYFVLTSSKIYYSEETSSDQGNEDEEEPKEVSSSTELHSNEKWFHGKLGAGRDGRHIAERLLTEYCIETGAPDGSFLVRESETFVGDYTLSFWRNGKVQHCRIHSRQDAGTPKFFLTDNLVFDSLYDLITHYQQVPLRCNEFEMRLSEPVPQTNAHESKEWYHASLTRAQAEHMLMRVPRDGAFLVRKRNEPNSYAISFRAEGKIKHCRVQQEGQTVMLGNSEFDSLVDLISYYEKHPLYRKMKLRYPINEEALEKIGTAEPDYGALYEGRNPGFYVEANPMPTFKCAVKALFDYKAQREDELTFIKSAIIQNVEKQEGGWWRGDYGGKKQLWFPSNYVEEMVNPVALEPEREHLDENSPLGDLLRGVLDVPACQIAIRPEGKNNRLFVFSISMASVAHWSLDVAADSQEELQDWVKKIREVAQTADARLTEGKIMERRKKIALELSELVVYCRPVPFDEEKIGTERACYRDMSSFPETKAEKYVNKAKGKKFLQYNRLQLSRIYPKGQRLDSSNYDPLPMWICGSQLVALNFQTPDKPMQMNQALFMTGRHCGYVLQPSTMRDEAFDPFDKSSLRGLEPCAISIEVLGARHLPKNGRGIVCPFVEIEVAGAEYDSTKQKTEFVVDNGLNPVWPAKPFHFQISNPEFAFLRFVVYEEDMFSDQNFLAQATFPVKGLKTGYRAVPLKNNYSEDLELASLLIKIDIFPAKENGDLSPFSGTSLRERGSDASGQLFHGRAREGSFESRYQQPFEDFRISQEHLADHFDSRERRAPRRTRVNGDNRL
Turning to B3, the binding result in experiment [3] was “binds”.
